Source: article PMC5358333
These are yes or no findings as the source states them, for the method shown. In cells and extracts the contact can be indirect. Some binding calls cover weakened binding; strength is not graded here.

Sequences of proteins named here, by UniProt entry; tags and fusion partners are left off.
UniProt P08670: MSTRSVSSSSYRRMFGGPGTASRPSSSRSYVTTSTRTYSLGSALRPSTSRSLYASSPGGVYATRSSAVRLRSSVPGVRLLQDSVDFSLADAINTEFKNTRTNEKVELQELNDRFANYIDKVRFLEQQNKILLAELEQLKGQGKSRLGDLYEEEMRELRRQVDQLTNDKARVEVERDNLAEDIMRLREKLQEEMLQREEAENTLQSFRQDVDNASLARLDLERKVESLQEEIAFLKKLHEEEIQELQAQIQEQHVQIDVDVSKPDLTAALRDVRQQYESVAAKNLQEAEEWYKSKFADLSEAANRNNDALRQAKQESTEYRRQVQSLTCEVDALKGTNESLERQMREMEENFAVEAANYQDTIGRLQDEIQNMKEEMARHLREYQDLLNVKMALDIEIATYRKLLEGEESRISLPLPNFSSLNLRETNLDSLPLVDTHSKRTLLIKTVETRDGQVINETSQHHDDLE

Biological target: T1, GEF-H1 (also known as ARHGEF2) (human (endogenous in U2OS)) (UniProt Q92974)
T1 sequence: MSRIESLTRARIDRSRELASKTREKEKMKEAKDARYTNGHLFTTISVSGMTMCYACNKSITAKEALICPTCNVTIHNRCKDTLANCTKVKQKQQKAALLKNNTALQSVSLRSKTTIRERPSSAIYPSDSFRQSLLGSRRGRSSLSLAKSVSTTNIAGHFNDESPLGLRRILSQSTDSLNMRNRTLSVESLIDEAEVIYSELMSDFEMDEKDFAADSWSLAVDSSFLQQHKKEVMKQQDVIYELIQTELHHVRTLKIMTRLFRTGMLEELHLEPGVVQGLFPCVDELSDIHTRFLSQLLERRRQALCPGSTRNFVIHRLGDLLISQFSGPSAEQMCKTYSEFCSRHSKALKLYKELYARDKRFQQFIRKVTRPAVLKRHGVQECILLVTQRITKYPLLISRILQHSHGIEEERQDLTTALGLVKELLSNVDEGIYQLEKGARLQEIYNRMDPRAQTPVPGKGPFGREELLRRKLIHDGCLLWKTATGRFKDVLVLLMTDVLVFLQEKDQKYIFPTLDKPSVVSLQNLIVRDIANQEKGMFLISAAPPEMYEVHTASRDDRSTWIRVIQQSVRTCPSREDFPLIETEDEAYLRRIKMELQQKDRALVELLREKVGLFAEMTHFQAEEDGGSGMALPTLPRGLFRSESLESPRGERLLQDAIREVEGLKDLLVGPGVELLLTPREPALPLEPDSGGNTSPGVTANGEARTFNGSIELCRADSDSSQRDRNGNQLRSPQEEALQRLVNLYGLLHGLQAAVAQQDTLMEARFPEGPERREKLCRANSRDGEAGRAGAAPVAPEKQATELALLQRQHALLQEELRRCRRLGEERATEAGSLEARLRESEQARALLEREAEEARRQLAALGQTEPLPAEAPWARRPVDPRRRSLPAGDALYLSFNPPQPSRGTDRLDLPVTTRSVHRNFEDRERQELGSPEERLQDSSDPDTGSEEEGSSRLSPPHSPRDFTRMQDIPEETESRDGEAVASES
Assay: co-IP; U2OS whole-cell extract in NP-40 lysis buffer (50 mM Tris-HCl pH 7.4, 50 mM NaCl, 0.1% Triton X-100, 1% NP-40); anti-GEF-H1 antibody on Dynabeads, overnight at 4°C; blot with anti-vimentin antibody; IgG as negative control

- binding: binds
Substance: vimentin (from UniProt P08670 1-466)
